# About 570 (0.3%) of roughly 190,000 compounds were called active. Inconclusive means that the source gave no clear call. Such entries were picked first, then a sample of the others.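 The calls were made as follows: active = z-score above 3 at 5 µM with at least 500 cells counted in the well; inconclusive = wells under 500 cells, flagged as cytotoxic or low count; inactive = the rest.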
# Assay: up-regulation of insulin promoter-GFP reporter – imaging, high-content screening, mouse beta cells (AID 1625)
# Settings: MIN6 insulin promoter-GFP reporter, at 5 µM, stronger effect = higher value
row,Structure (SMILES),z-score
1,COC(=O)c1cc(NC(=O)c2cccc(Cl)c2)c(=O)oc1/C=C/Nc1cc(C)cc(C)c1,active: 14.9
2,O=C(CN1CCN(c2ccc([N+](=O)[O-])cc2)CC1)Nc1ccccn1,inactive: -0.47
3,CCCN1CCCc2cc(CN)ccc21,inconclusive: -6.64
4,O=C(CN(c1cccc(C(F)(F)F)c1)S(=O)(=O)c1ccc(Cl)c([N+](=O)[O-])c1)NCc1ccc(F)cc1,inconclusive: -2.43
5,c1ccc(Cn2c(-c3ccccc3)c[n+]3c2SCCC3)cc1,inconclusive: -2.41
6,S=c1[nH]nc(-c2ccccc2)n1CC1CCCO1 (centres undefined),active: 3.06
7,O=C(N/N=C/C(Br)=C/c1ccccc1)c1n[nH]c2c1CCC2,inconclusive: -4.78
8,COC1=CCC2([N+](=O)[O-])CN(CCO)CC1([N+](=O)[O-])C2 (centres undefined),active: 3.03
9,COC(=O)c1cccc(NC(=O)CCc2cc(OC)c(OC)c(OC)c2)c1,inactive: 0.47
10,CCOCCCNC(=O)/C(C#N)=C/c1cc(C)c(O)c(C)c1,inactive: 0.65
11,CC(C#CCN1CCCCC1)OCCOCc1ccccc1 (centres undefined),inactive: -0.51
12,COC(=O)N/N=C/c1ccc(Oc2ccccc2)cc1,inactive: 0.17
13,CCN1/C(=C/c2ccc3cc(C)ccc3[n+]2C)Sc2ccc3sccc3c21,inconclusive: 13.7
14,COc1ccc(-n2c(Cc3cccn3C)nnc2SCC(=O)Nc2cccc(C)c2C)cc1,active: 3.05
15,COc1ccc(NC(=O)/C(Cl)=C(/Cl)S(=O)Cc2ccccc2Cl)cn1 (centres undefined),inconclusive: -2.38
16,CN(C)c1ccc(/C=C(/C#N)C(=O)NCc2ccccc2)o1,active: 16.1
17,Cc1nn(Cc2cccc(F)c2)c(C)c1NC(=O)c1c(Cl)cnn1C,inconclusive: -5.32
18,CC(NC(=O)/C(C#N)=C1\N=C(NC(=O)c2ccco2)c2ccccc21)c1ccccc1 (centres undefined),active: 3.68
19,Cc1ccc(S(=O)(=O)Nc2ccc(=O)n(Cc3ccc(Cl)c(Cl)c3)c2)cc1,active: 3.26
20,Cc1ccc(C(c2sc3nc(C)nn3c2O)N2CCN(CCO)CC2)cc1 (centres undefined),inconclusive: 0.28
21,CC(=O)C1=C(C)Nc2ncnn2C1c1ccc(Cl)cc1Cl (centres undefined),active: 3.45
22,CC(=O)CC1(O)C(=O)N(CN2CCN(c3ccccc3)CC2)c2ccccc21 (centres undefined),inactive: 0.29
23,Nc1nc(CSCCO)nc(Nc2ccc(F)cc2)n1,inconclusive: -4.08

# Another view of part of the listing above.
row	Structure (SMILES)	z-score
3	CCCN1CCCc2cc(CN)ccc21	inconclusive: -6.64
4	O=C(CN(c1cccc(C(F)(F)F)c1)S(=O)(=O)c1ccc(Cl)c([N+](=O)[O-])c1)NCc1ccc(F)cc1	inconclusive: -2.43
5	c1ccc(Cn2c(-c3ccccc3)c[n+]3c2SCCC3)cc1	inconclusive: -2.41
6	S=c1[nH]nc(-c2ccccc2)n1CC1CCCO1 (centres undefined)	active: 3.06
7	O=C(N/N=C/C(Br)=C/c1ccccc1)c1n[nH]c2c1CCC2	inconclusive: -4.78

# Following part.

row,Structure (SMILES),z-score
1,Cc1ccc(C(=O)C[n+]2cc(-c3ccc(C)cc3)n3c2CCCCC3)cc1,inconclusive: -0.03
2,O=C1/C(=C/c2c[nH]c3ccccc23)CCC/C1=C\c1c[nH]c2ccccc12,active: 4.59
3,COc1ccc(-c2ccc(=O)n(Cc3ccc([N+](=O)[O-])cc3)n2)cc1,inactive: -0.22
4,CCCCn1nc2cc(C(=O)NC3CCCc4ccccc43)ccc2c1OCC (centres undefined),inactive: 0.03
5,CSc1nnc(Cc2cc(=O)[nH]c(=O)[nH]2)n1-c1cccc(C)c1,inconclusive: -4.79
6,COc1ccc(NC(=O)CC2Oc3ccccc3NC2=O)cc1 (centres undefined),inconclusive: -5.32
7,O=C(O)c1n[nH]c2c1CCCCC2,inconclusive: -0.02
8,Cn1cc(/C=C2\SC(=S)N(NC(=O)c3cccc(Cl)c3)C2=O)c2ccccc21,active: 7.3
9,COc1ccc(CNc2nc(NCc3ccc(OC)c(OC)c3)n(C(=O)c3cccs3)n2)cc1OC,inactive: 0.8
10,CC1CC(C)(C)N(C(=O)CSc2ccc(-c3ccc(F)cc3)nn2)c2ccccc21 (centres undefined),inactive: 0.34
11,Cc1c(C(=O)NCCSCc2ccccc2Cl)cccc1[N+](=O)[O-],inactive: -0.21
12,O=c1c2ccccc2c(C=Nc2ccccc2O)c(O)n1-c1nccs1,active: 4.35
13,Cc1cc(/C=C2\C(=N)N3N=C(C(C)C)SC3=NC2=O)c(C)n1Cc1ccccc1,inactive: 0.29
14,CCC(C)(C)n1nnnc1CN1CCN(C(c2ccccc2)c2ccccc2)CC1,inconclusive: -2.39
15,CCCS(=O)(=O)n1nc(-c2ccccc2)cc1N,inconclusive: -1.54
16,CC(=O)NC(c1ccc(Cl)cc1)c1c(O)ccc2ccc(O)cc12 (centres undefined),active: 10.6
17,COc1ccccc1Nc1nc(Cl)c(C=O)s1,active: 3.19
18,Cc1ccc2nc(-c3ccc4c(c3)OCCO4)cn2c1,inactive: 0.1
19,O=c1[nH][nH]c(-c2ccccc2O)c1C(C[N+](=O)[O-])c1ccc(Cl)cc1Cl (centres undefined),inactive: -0.86
20,Cn1c(=O)c2c(nc(NCc3ccco3)n2CCc2ccccc2)n(C)c1=O,inconclusive: -6.92
21,Oc1ccc(N=Nc2ccc3c(c2)OCO3)c2ccccc12,inconclusive: -1.45
22,COc1ccc(S(=O)(=O)Nc2cc(Sc3ncn[nH]3)c(O)c3ccccc23)cc1,inconclusive: -2.47
23,Cc1ccccc1Cn1ccc(=NCc2ccccc2)cc1,inconclusive: -2.17

row,Structure (SMILES),z-score
1,CN1/C(=C\C(=O)CSc2nnc(NCc3ccccc3)s2)C(C)(C)c2ccccc21,inconclusive: -2.07
2,O=C(CCCn1c(=O)[nH]c2ccccc2c1=O)N1CCN(c2ccccn2)CC1,inactive: 0.19
3,N#C/C(=C\c1cccc(Oc2ccccc2)c1)C(=O)N1CCOCC1,inactive: -0.32
4,NC(=O)COC(=O)c1ccccc1OCc1ccccc1Cl,inactive: 0.05
5,COc1ccc(CCNC(=O)C2CCN(Cc3nc(-c4ccccc4C)oc3C)CC2)cc1OC,inconclusive: -0.35
6,COCCn1c(-c2ccc(OC)cc2)cnc1SCC(=O)Nc1cc(C)on1,inconclusive: -1.95
7,Cc1nc2sccn2c1-c1csc(NCc2ccccc2)n1,inconclusive: -1.98
8,COc1ccc(-c2nc3ccccc3n2Cc2ccc(C)cc2)cc1,inactive: -0.41
9,CCN1/C(=C/c2ccc3cc(C)cc(C)c3[n+]2CC)Sc2cc(C)ccc21,inconclusive: 10.3
10,CC1(C)CC(N2CCN(C(c3ccccc3)c3ccccc3)CC2)=CC(=[N+]2CCCCC2)C1,inconclusive: -1.91
11,CNC1=C(N(C(C)=O)c2ccc(Br)cc2)C(=O)c2ccccc2C1=O,inconclusive: -3.8
12,COc1ccc2c(C(=O)CN(C)C3CCCCC3)c[nH]c2c1,active: 4.45
13,C/C(Cl)=C\Cn1c(NCCc2ccccc2)nc2c1c(=O)n(C)c(=O)n2C,inconclusive: -3.33
14,COc1ccc(CCNS(=O)(=O)c2cccc(F)c2)cc1OC,inactive: -0.1
15,Cc1ccc(CN2CCN(CC(=O)NCCCN3CCN(c4ccc(F)cc4)CC3)C2=O)cc1,inconclusive: -0.91
16,O=C(Nc1cccc(Cl)c1)Nc1nnc(-c2ccncc2)s1,inconclusive: -4.35
17,COc1ccc(NC(=O)c2[nH]c(C)c(C(C)=O)c2C)cc1Cl,active: 3.83
18,CCOC(=O)c1n[nH]c2ccccc12,inactive: -0.03
19,CCOc1ccc(-n2c(-c3ccccc3)c[n+]3c2CCCCC3)cc1,inconclusive: -3.78
20,COc1ccc(N2CCN(C(=O)C3CCC(Cn4c(=S)[nH]c5ccccc5c4=O)CC3)CC2)cc1 (centres undefined),inactive: -3.35
21,Fc1ccc2[nH]c3c(N4CCN(C5CCCCC5)CC4)ncnc3c2c1,inconclusive: -6.35
22,CCC(Oc1ccccc1)C(=O)NCc1ccc(S(N)(=O)=O)cc1 (centres undefined),inconclusive: -4.63
23,CC1CCN(CCCn2c(SCC(=O)Nc3ccccc3Cl)nc3ccccc3c2=O)CC1,inactive: 0.29

# Part of the list above in a different format:
row | Structure (SMILES) | z-score
17 | COc1ccc(NC(=O)c2[nH]c(C)c(C(C)=O)c2C)cc1Cl | active: 3.83
18 | CCOC(=O)c1n[nH]c2ccccc12 | inactive: -0.03

# Next compounds:

row,Structure (SMILES),z-score
1,COc1ccc(C(=O)c2sc3nc(-c4ccccc4)ccc3c2N)cc1,inconclusive: 4.03
2,O=c1cc(CSc2nnnn2-c2ccccc2)nc2sccn12,inactive: -0.21
3,O=C(NCc1cccnc1)c1c[nH]c2cc3c(cc2c1=O)OCCO3,inconclusive: -1.28
4,C=CCNc1nc2c(c(=O)n(C)c(=O)n2C)n1CCCCCC,inconclusive: -3.07
5,CC[n+]1c(C=C2C=C(C)OC(C)=C2)sc2ccccc21,inconclusive: 7.44
6,N#C/C(=C\C1=C(N2CCOCC2)C(=C/c2cccc([N+](=O)[O-])c2)/CC1)C(=O)Nc1ccccc1F,active: 3.07
7,COC(=O)c1ccc(COc2ccc3c(C)c(C)c(=O)oc3c2)o1,active: 3.49
8,CCOC(=O)C1CCN(C(=O)c2sc3nc(C)nc(N4CCC(C)CC4)c3c2C)CC1,inconclusive: -1.13
9,CN1/C(=C\C(=O)CN2C(=O)NC3(CCCCCC3)C2=O)C(C)(C)c2ccccc21,inconclusive: -3.65
10,COc1ccc(NC(=O)c2sc3nc(-c4cccnc4)ccc3c2N)cc1,active: 6.04
11,CCOC(=O)COc1ccc(C(=O)NC2CCCCC2)cc1,active: 4.25
12,CC(=O)N1[C@H](Cc2ccccc2)C=C[C@]1(C)C(=O)NCCc1c[nH]c2ccccc12,inconclusive: -0.84
13,Cc1ccc2nc(/C(C#N)=C\c3ccc([N+](=O)[O-])o3)[nH]c2c1,inconclusive: 14.6
14,O=[N+]([O-])c1ccc(N/N=C/c2sc(N3CCOCC3)nc2-c2ccccc2)c(S(=O)(=O)Nc2ccc(Cl)cc2)c1,inconclusive: 14.5
15,CC(=O)NCCOc1cccc2cccnc12,inactive: 0.25
16,CC1=C(C(=O)OCc2ccccc2)C(c2ccco2)C2=C(CC(C)(C)CC2=O)N1 (centres undefined),inactive: -0.28
17,CCn1cc(C(=O)NCCN(C)CCc2ccccc2)c(=O)c2cc(S(=O)(=O)N(C)C)ccc21,active: 3.87
18,CCc1cc2c(NCc3ccco3)ncnc2s1,inconclusive: -2.83
19,Cc1ccc(-c2cc(C(F)F)n3ncc(C(=O)N4CCCc5ccccc54)c3n2)cc1,inactive: 0.44
20,C#CCOCCOCCOCCNc1nc(N2CCN(C(=O)[C@H](C)n3cc(CCCN=C(N)N)nn3)CC2)nc(N2CCN(C(=O)[C@H](CCCCN)n3cc(CCCC)nn3)CC2)n1,inactive: 0.01

# Source: PubChem BioAssay AID1625 (Sanford-Burnham Center for Chemical Genomics, 2009)
